Laboratory results as given in patent US20110313018A1.
Results are given in words; binding and its absence hold for the method and conditions named. In cells and extracts the contact can be indirect. Some results given as binding are weak or reduced against the parent protein; the word gives no strength. Tags and fused reporters may be left off the sequences shown.

Target: T1, 3xFLAG-PBK/TOPK (pCAGGSn3F-PBK/TOPK, expressed in HEK293 cells) (human) (UniProt Q96KB5)
T1 sequence: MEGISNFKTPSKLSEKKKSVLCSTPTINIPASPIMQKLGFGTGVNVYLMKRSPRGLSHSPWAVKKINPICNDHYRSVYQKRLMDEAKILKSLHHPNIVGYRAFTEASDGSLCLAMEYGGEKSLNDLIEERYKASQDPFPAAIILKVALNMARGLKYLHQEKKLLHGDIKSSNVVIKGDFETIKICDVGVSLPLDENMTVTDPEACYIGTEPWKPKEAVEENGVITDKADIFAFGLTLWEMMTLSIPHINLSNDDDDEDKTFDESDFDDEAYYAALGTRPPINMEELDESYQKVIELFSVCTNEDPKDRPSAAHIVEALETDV
Assay: co-immunoprecipitation with anti-HA agarose from co-transfected HEK293 cells, western blot

binding: binds
B1: HA-LGN/GPSM2 (pCAGGSnHA-LGN/GPSM2, N-terminal HA tag, expressed in HEK293 cells) (protein, not shown: small tags and cut ends)
chain: MREDHSFHVRYRMEASCLELALEGERLCKSGDCRAGVSFFEAAVQVGTEDLKTLSAIYSQLGNAYFYLHDYAKALEYHHHDLTLARTIGDQLGEAKASGNLGNTLKVLGNFDEAIVCCQRHLDISRELNDKVGEARALYNLGNVYHAKGKSFGCPGPQDVGEFPEEVRDALQAAVDFYEENLSLVTALGDRAAQGRAFGNLGNTHYLLGNFRDAVIAHEQRLLIAKEFGDKAAERRAYSNLGNAYIFLGEFETASEYYKKTLLLARQLKDRAVEAQSCYSLGNTYTLLQDYEKAIDYHLKHLAIAQELNDRIGEGRACWSLGNAYTALGNHDQAMHFAEKHLEISREVGDKSGELTARLNLSDLQMVLGLSYSTNNSIMSENTEIDSSLNGVLPKLGRRHSMENMELMKLTPEKVQNWNSEILAKQKPLIAKPSAKLLFVNRLKGKKYKTNSSTKVLQDASNSIDHRIPNSQRKISADTIGDEGFFDLLSRFQSNRMDDQRCCLQEKNCHTASTTTSSTPPKMMLKTSSVPVVSPNTDEFLDLLASSQSRRLDDQRASFSNLPGLRLTQNSQSVLSHLMTNDNKEADEDFFDILVKCQGSRLDDQRCAPPPATTKGPTVPDEDFFSLILRSQGKRMDEQRVLLQRDQNRDTDFGLKDFLQNNALLEFKNSGKKSADH
